Test results taken from PubChem BioAssay AID483 (Columbia University Molecular Screening Center, 2006).
Some of the results follow.

Assay: inhibitors of mutant huntingtin aggregation, primary screen, imaging, exon1htt(103Q)mCFP cells, high-content imaging (AID 483);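 further: compound exposure lasted 3 days before fixation; percent of the per-plate median nuclei count of sample wells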
Conditions: exon1htt(103Q)mCFP cell line, aggregate imaging; measured here: cell count, toxicity; at 2 µM

Compound | nuclei count [%]
Cc1nn(-c2ccccc2)c2c1P(=O)(N1CCOCC1)N(C)C(c1ccccc1)=N2 (stereo not given) | 98.4
CCOP1(=S)c2c(C)nn(CCC#N)c2N=C(c2ccccc2F)N1C (stereo not given) | 69.5
Cc1ccc(C)c(NP(C)(=O)Oc2ccccc2)c1 (stereo not given) | 96.8
CP(=S)(Nn1cnnc1)Oc1ccccc1 (stereo not given) | 105
COP1(=S)c2c(C)nn(CCC#N)c2N=C(c2ccc(F)cc2)N1C (stereo not given) | 99.8
O=C(COc1ccccc1)OC1CN2CCC1CC2 (stereo not given) | 107
CP(=O)(Nc1ccccn1)Oc1ccccc1 (stereo not given) | 64
CN(C)CCOC(=O)C(O)(c1ccccc1)C1CCCCC1 (stereo not given) | 106
CP(=O)(Nc1ccc2c(c1)OCCO2)Oc1ccccc1 (stereo not given) | 104
O=P(Nc1nccs1)(c1ccccc1)c1ccccc1 | 106
